# PubChem BioAssay AID504834 (National Center for Advancing Translational Sciences (NCATS), 2011)
# Where “and” joins values, the source holds several entries; their conditions need not be identical. Identical values can stand only once. The whole screen tested about 320,000 compounds, of which about 22,000 (6.9%) were called active. Inconclusive means that the source gave no clear call. Such entries were picked first, then a sample of the others. Calls follow the shape of the dose curve; as a rule, active = well fitted inhibition curve with a large enough effect; inconclusive = small, poorly fitted or top-dose-only effect, or another doubt; inactive = no such curve, though single readings can be large or run the other way. Where the call is inconclusive, the potency comes from a doubtful curve fit.
# Assay: Primary qHTS for delayed death inhibitors of the malarial parasite plastid, 96 hour incubation
# Conditions: P. falciparum luciferase reporter growth; series mostly up to 28.7 µM
# Outline: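 Plates of compound plus infected erythrocytes (2% hematocrit, 0.05% parasitemia final) incubate 96 hours, 37 C, 5% CO2. Detection reagent added; reduced luminescence from the parasites' luciferase reporter flags inhibition.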
# Potency is read from the fitted curve at half-maximal effect.
row,Structure (SMILES),Potency
1,O=C(c1ccc(S(=O)(=O)N2CCCCC2)cc1)N1CCN(CCN2C(=O)c3cccc4cccc(c34)C2=O)CC1,active: 3.29 µM
2,CCN1C(=O)[C@H]2[C@@H](c3ccc(-c4ccc(Cl)c(Cl)c4)c(OC)c3)N[C@@](C)(C(=O)OC)[C@H]2C1=O,active: 0.928 µM
3,Cn1c2c(c(=O)n(C)c1=O)C(NC(=O)c1cccs1)(C(F)(F)F)C(=O)N2 (stereo not given),inactive
4,Cc1ccc(C2NC(=O)c3ccccc3O2)cc1 (stereo not given),"inconclusive: 5.86 µM [inhibitor, partial curve]"
5,O=c1c(/C=N/O)c(Nc2ccccc2)nc2ccccn12,"inconclusive: 0.465 µM [inhibitor, full curve, poor fit]"
6,Cc1cc(C(=O)Nc2ccc(N3CCOCC3)cc2)c2ccccc2n1,active: 13.1 µM
7,COc1ccc(Nc2nc(N)nc(CSC(=S)N3CCCCC3C)n2)cc1 (stereo not given),"inconclusive: 16.5 µM [inhibitor, single point]"
8,Cc1ccc(F)cc1NC(=O)C1C2CCC(O2)C1C(=O)O (stereo not given),inactive
9,CCOC(=O)C1CCN(C(=O)Cn2nc(C)n3nc(-c4ccc(OC)cc4)cc3c2=O)CC1,"inconclusive: 18.5 µM [inhibitor, single point]"
10,CCc1nc(N2CCN(C(C)=O)CC2)c(C#N)c2c1COC(C)(C)C2,"inconclusive: 18.5 µM [inhibitor, single point]"
11,CC1(C)CC(=O)c2cnc(NC3CC3)nc2C1,"inconclusive: 3.7 µM [inhibitor, partial curve, poor fit]"
12,Cc1cc(C)cc(NC(=O)C2CCN(S(=O)(=O)c3ccc4c(c3)NC(=O)C(C)S4)CC2)c1 (stereo not given),"inconclusive: 18.5 µM [inhibitor, single point]"
13,CCS(=O)(=O)c1nc(S(=O)(=O)c2ccc(Cl)cc2)c(N2CCc3ccccc3C2)s1,active: 2.94 µM
14,Cc1c(Cl)cccc1NC(=S)NCc1cccn1C,inactive
15,CCOc1ccc(N2C(=O)CC(N3CCC(NC(=O)Nc4ccccc4)CC3)C2=O)cc1 (stereo not given),"inconclusive: 18.5 µM [inhibitor, single point]"
16,CN(CC(=O)NCc1cccnc1)S(=O)(=O)c1ccc2c(c1)c(=O)n(C)c(=O)n2C,"inconclusive: 18.5 µM [inhibitor, single point]"
17,COc1ccc(S(=O)(=O)N2CCOC23CCN(S(=O)(=O)c2cc(C)ccc2C)CC3)cc1,inactive
18,CC(NC(=O)c1ccc(OC2CCN(Cc3ccccn3)CC2)cc1)c1ccccc1 (stereo not given),active: 11.7 µM
19,COc1ccc(C(=O)NCCc2nnc(SCC(=O)Nc3ccccc3)n2C)cc1,"inconclusive: 3.29 µM [inhibitor, partial curve, poor fit]"
20,COc1cc(C(=O)N2CCc3ccccc32)cc(OC)c1OC,inactive
21,COc1ccc(C(=O)OCC(=O)NC23CC4CC(CC(C4)C2)C3)c(OC)c1OC,"inconclusive: 11.7 µM [inhibitor, single point]"
22,Cc1ccnc(SCC(=O)N2CCN(C(c3ccccc3)c3ccccc3)CC2)n1,active: 14.7 µM
23,CC(Sc1nnc(COc2ccc([N+](=O)[O-])cc2)n1-c1ccccc1)C(=O)O (stereo not given),active: 9.28 µM
24,O=C(NCCCCCCNC(=O)c1cccs1)c1cccs1,inactive

row,Structure (SMILES),Potency
1,CCCOc1cccc(-c2cc(C(=O)N/N=C/c3ccccn3)c3ccccc3n2)c1,active: 9.28 µM
2,CCOc1ccccc1OCCCC(=O)Nc1ccc(OC)nc1,"inconclusive: 0.0828 µM [inhibitor, full curve, poor fit]"
3,COC(=O)C1=C(C)N(Cc2ccccc2)C(=NCC(C)C)N[C@H]1c1ccccc1,active: 2.94 µM and active: 8.28 µM
4,COC(=O)c1ccccc1NC(=O)c1c(Br)cnn1C,"inconclusive: 18.5 µM [inhibitor, partial curve, poor fit]"
5,COc1nc(OCC#N)nc(N(C)C)n1,"inconclusive: 4.15 µM [inhibitor, partial curve, poor fit]"
6,Cc1ncc([N+](=O)[O-])n1CCOC(=O)NC(NCc1ccccc1)C(Cl)(Cl)Cl (stereo not given),active: 0.329 µM
7,CCN(C(=O)COC(=O)C1CCN(S(=O)(=O)c2cccs2)CC1)c1ccccc1,inactive
8,CCOC(=O)NC(=O)COC(=O)Cc1cc(OC)c(OC)c(OC)c1,"inconclusive: 16.5 µM [inhibitor, single point]"
9,O=c1c2c(-c3cccs3)csc2[nH]c(=S)n1-c1ccccc1,"inconclusive: 4.15 µM [inhibitor, single point]"
10,C/C(N)=C(/C#N)C(=O)COC(=O)c1ccc(C)c(S(=O)(=O)N2CCCCC2)c1,"inconclusive: 8.28 µM [inhibitor, partial curve, poor fit]"
11,O=C(COc1ccc(Cl)cc1)Nc1ncc([N+](=O)[O-])s1,inactive
12,COc1nc(N2CCCCCC2)nc(N2CCCCCC2)n1,inactive
13,CCc1ccc(-c2cc3c(=O)n(CC(=O)N4CCCCCC4)nc(C)n3n2)cc1,inactive
14,COc1ccc([C@@H]2[C@@H]3C(=O)N(C(C)(C)C)C(=O)[C@@H]3[C@]3(CC(C)C)C(=O)N(c4ccccc4)C(=O)N23)cc1,"inconclusive: 6.57 µM [inhibitor, partial curve]"
15,O=C(c1ccc(Cl)cc1)N1CCC(C(=O)N2CCCc3ccccc32)CC1,"inconclusive: 18.5 µM [inhibitor, single point]"
16,Cc1cc(C)c(S(=O)(=O)N2CCCC(C(=O)NC3CCCC3)C2)c(C)c1 (stereo not given),inactive
17,CCOC(=O)C1(CC2CC2)CCN(C(=O)c2cc(C)nc3ccc(CC)cc23)CC1,active: 2.08 µM
18,O=C1Nc2cc3c(cc2Sc2ccccc21)OCCO3,"inconclusive: 1.85 µM [inhibitor, full curve, poor fit]"
19,CC(=O)c1c(C)[nH]c(C(=O)NCc2cccs2)c1C,"inconclusive: 3.29 µM [inhibitor, single point]"
20,CCSc1nc2ccccc2n1C(=O)/C=C\c1ccc(OC)c(OC)c1,"inconclusive: 18.5 µM [inhibitor, single point]"
21,COc1ccc(C)cc1Nc1nc(-c2c(C)[nH]c3ccccc23)cs1,inactive
22,COc1ccccc1CNC(=O)CSc1nnc2c(Cl)cc(C(F)(F)F)cn12,"inconclusive: 9.28 µM [inhibitor, single point]"
23,COc1ccc(CN(C(=S)Nc2ccccc2)C2CC(=O)N(c3ccccc3)C2=O)cc1 (stereo not given),"inconclusive: 18.5 µM [inhibitor, single point]"
24,CCOc1cc(CNCCSc2nnnn2C)cc(Br)c1OCc1ccc(F)cc1,active: 10.4 µM

row,Structure (SMILES),Potency
1,CCCC[C@]12Cc3ccccc3C(O1)c1c(c3ccccc3oc1=O)O2,"inconclusive: 1.69 µM [inhibitor, single point]"
2,CCc1cc(C)cc(OCCNC(=O)c2cncc(Br)c2)c1,"inconclusive: 0.0738 µM [inhibitor, full curve, poor fit]"
3,O=c1[nH]c(-c2ccccc2)c(-c2ccccc2)nc1[N+](=O)[O-],inactive
4,COC(=O)Cn1c(CN2CCN(C(=O)c3ccco3)CC2)nc2c1c(=O)n(C)c(=O)n2C,"inconclusive: 3.29 µM [inhibitor, partial curve, poor fit]"
5,CCOc1ccc(NC(=O)C2Cc3ccccc3CN2S(=O)(=O)CC)cc1 (stereo not given),"inconclusive: 8.28 µM [inhibitor, single point]"
6,CN1CCC(N(C)S(=O)(=O)c2ccc(NC(=O)COc3ccc([N+](=O)[O-])cc3)cc2)CC1,"inconclusive: 16.5 µM [inhibitor, partial curve, poor fit]"
7,O=C(NCC1CCCO1)c1cccc(F)c1 (stereo not given),"inconclusive: 0.262 µM [inhibitor, full curve, poor fit]"
8,O=C(Nc1ccc(N2CCOCC2)cc1)c1cc(-n2cnnc2)ccc1Cl,inactive
9,CCN(CCCNC(=O)C1CCN(S(=O)(=O)c2cnc[nH]2)CC1)c1ccccc1,"inconclusive: 0.037 µM [inhibitor, full curve, poor fit]"
10,O=C(NCCS(=O)(=O)N1CCN(c2ccc(F)cc2)CC1)C12CC3CC(CC(C3)C1)C2,inactive
11,CC1CCN(C2=NC(=O)/C(=C/c3cccc(O)c3)S2)CC1,inactive
12,Cc1cc(Oc2ccc(Cl)cc2)nc(-c2ccccc2O)n1,"inconclusive: 0.0147 µM [inhibitor, full curve, poor fit]"
13,c1cc2c3c(cccc3c1)NC(c1ccc3c(c1)OCO3)N2,"inconclusive: 4.65 µM [inhibitor, partial curve, poor fit]"
14,COc1ccccc1-n1cc(-c2ccc(Br)cc2)[nH]c1=S,inactive
15,Cc1ccc(OC(F)F)c(N2C(=O)C3C4CCC(O4)C3C2=O)c1 (stereo not given),"inconclusive: 18.5 µM [inhibitor, single point]"
16,CC(C)N1CCc2c(sc(NC(=O)Cc3ccccc3)c2C(N)=O)C1,"inconclusive: 5.22 µM [inhibitor, partial curve]"
17,O=C(CNc1cccc(F)c1)Nc1cccc(S(=O)(=O)N2CCCCC2)c1,inactive
18,COCCn1c(SCC(=O)Nc2cccc(OC)c2)nnc1-c1ccccc1,active: 2.33 µM
19,Cc1nn(Cc2ccccc2)c(C)c1C(=O)NCCCN1CCCC1=O,inactive
20,CCn1c(CCC(=O)N(C)CC(=O)Nc2cccc(F)c2)nc2cc(S(=O)(=O)N(C)C)ccc21,"inconclusive: 10.4 µM [inhibitor, single point]"
21,CCCC(=O)Nc1cc(C(=O)O)ccc1S(=O)(=O)c1ccc(C)cc1,"inconclusive: 10.4 µM [inhibitor, single point]"
22,Cc1cc(C(=O)NCCc2ccc(Cl)cc2)c(C)o1,inactive
